Assay results: article PMC6380468, “Investigations on small molecule inhibitors targeting the histone H3K4 tri-methyllysine binding PHD-finger of JmjC histone demethylases” (Bioorganic & Medicinal Chemistry, 2018)

Tests used:
[1] = AlphaScreen biotin-His6 counterscreen; details: AlphaScreen interference counterscreen with biotin-His6; unit inferred; DNC = data did not converge to binding model; NM = not measurable within the solubility range
KDM7A (PHD-JmjC) = experiment: MALDI-TOF MS H3K9me2 demethylation assay, KDM7A(PHD-JmjC); type: biochemical, human; details: at 100 µM, substrate H3(1–15)K9me2
Method: H3(1–15)K9me2 and H3(1–5)K4me3K9me2 were used as substrates for KDM7A(PHD-JmjC) and KDM7B(PHD-JmjC), respectively. […] For KDM7B(PHD-JmjC), inhibition was most pronounced for 1a (95%) and 2a (89%) whilst others inhibited more weakly (Table 4).
For KDM7(PHD-JmjC) assays, 2.5 µM enzyme was used, with 5 µM H3(1-15)K9me2 peptide substrate for KDM7A or H3(1-15)K4me3K9me2 for KDM7B. Final concentrations were: 1mM ascorbate, 50 µM (NH4)2Fe(II)(SO4)2 and 200 µM 2OG. The mixture was quenched using formic acid after 10 minutes (KDM7A) or 5 minutes (KDM7B).

CCCCc1oc2ccccc2c1C(=O)c1cc(I)c(OCCN(CC)CC)c(I)c1 [AMI, amiodarone, reference compound]
IC50 [1]: 178 ± 58 µM
KDM7A (PHD-JmjC) (Catalytic), inhibition of H3K9me2 demethylation (KDM7A (PHD-JmjC)): 83% (100 µM)
